This is one part of the list. Most values lie at the level of the controls, where differences are scatter.

Protein sequences, listed by entry. Tags and fused reporters are not part of them. Lines headed by an entry give the natural chain unless they say otherwise; changes in a name come on top.
UniProt P11055, whole entry: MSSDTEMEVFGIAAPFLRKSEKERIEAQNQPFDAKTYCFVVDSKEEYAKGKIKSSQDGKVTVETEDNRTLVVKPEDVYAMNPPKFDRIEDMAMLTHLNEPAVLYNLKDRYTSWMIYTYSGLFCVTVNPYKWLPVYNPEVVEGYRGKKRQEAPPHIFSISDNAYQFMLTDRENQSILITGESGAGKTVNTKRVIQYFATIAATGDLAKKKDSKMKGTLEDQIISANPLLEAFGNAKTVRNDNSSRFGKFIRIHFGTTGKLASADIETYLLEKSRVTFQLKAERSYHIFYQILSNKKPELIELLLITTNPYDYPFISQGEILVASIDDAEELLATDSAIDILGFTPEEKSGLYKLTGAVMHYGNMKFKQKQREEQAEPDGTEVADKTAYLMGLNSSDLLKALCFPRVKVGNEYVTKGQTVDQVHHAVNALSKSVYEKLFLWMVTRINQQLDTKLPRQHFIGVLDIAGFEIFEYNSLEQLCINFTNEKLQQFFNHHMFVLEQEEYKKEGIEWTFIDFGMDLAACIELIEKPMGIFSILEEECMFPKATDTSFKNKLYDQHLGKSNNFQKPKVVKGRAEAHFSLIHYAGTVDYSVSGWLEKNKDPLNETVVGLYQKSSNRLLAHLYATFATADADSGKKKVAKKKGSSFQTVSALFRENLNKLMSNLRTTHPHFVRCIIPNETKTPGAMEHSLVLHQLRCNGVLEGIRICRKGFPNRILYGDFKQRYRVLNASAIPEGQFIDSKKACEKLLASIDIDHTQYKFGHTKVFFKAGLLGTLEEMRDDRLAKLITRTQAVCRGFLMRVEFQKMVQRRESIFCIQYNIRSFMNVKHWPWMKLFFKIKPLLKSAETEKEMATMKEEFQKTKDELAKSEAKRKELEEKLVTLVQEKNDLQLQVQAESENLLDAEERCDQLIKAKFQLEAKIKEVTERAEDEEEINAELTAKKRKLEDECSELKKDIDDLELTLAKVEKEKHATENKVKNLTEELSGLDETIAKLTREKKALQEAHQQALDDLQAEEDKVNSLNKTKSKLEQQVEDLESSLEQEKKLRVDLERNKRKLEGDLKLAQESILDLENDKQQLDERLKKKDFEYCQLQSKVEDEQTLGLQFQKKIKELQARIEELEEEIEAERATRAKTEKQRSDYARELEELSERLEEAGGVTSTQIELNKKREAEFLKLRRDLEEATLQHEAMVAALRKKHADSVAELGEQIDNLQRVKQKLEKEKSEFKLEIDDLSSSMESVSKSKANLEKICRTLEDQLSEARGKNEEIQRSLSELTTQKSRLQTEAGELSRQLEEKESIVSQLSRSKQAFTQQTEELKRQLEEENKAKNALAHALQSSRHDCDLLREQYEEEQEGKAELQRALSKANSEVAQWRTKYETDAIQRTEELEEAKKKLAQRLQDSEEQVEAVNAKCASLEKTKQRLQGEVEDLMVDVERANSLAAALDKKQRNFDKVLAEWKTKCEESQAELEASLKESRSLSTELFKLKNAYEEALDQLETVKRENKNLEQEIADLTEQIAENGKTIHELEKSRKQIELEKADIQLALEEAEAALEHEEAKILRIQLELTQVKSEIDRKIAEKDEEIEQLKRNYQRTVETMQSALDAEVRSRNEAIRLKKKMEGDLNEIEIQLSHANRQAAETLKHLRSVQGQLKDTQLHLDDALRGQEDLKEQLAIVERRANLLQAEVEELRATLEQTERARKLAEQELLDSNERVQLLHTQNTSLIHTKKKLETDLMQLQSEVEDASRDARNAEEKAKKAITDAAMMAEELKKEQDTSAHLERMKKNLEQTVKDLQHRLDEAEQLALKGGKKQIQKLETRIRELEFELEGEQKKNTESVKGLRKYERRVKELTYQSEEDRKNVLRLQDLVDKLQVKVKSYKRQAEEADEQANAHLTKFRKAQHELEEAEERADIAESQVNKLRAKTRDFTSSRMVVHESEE
UniProt P04183: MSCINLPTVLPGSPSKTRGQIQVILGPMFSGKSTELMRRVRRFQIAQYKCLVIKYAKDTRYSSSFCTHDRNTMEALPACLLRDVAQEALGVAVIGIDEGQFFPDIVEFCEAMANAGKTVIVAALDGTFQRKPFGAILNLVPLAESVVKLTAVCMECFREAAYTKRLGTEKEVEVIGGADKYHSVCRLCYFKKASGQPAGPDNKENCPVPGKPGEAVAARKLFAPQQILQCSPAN
UniProt P07237: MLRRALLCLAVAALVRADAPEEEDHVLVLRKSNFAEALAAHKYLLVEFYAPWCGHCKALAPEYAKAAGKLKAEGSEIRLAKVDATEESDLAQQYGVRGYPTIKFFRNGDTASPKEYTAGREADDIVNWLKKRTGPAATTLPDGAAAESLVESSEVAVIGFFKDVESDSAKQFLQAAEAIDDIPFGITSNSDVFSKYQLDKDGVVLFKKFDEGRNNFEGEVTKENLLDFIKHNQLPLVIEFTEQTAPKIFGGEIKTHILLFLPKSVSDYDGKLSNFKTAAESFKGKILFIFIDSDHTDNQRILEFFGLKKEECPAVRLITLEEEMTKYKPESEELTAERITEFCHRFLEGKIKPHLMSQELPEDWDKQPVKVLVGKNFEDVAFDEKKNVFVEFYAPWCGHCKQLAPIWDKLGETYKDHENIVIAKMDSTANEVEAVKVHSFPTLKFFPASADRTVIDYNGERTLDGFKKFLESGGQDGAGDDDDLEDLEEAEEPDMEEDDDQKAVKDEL
UniProt P01106: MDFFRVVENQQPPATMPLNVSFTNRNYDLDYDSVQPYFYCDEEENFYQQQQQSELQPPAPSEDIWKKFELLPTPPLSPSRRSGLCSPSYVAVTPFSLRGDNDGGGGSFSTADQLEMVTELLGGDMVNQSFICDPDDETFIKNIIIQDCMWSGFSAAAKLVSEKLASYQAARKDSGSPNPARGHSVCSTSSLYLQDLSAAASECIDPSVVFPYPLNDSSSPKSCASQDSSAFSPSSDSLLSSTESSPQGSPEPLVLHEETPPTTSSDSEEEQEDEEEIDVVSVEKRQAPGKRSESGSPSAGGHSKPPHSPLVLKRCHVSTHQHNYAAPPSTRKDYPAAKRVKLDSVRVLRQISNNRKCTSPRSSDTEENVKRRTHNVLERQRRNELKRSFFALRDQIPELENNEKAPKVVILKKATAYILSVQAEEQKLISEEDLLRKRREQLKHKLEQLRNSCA
UniProt P0CB38: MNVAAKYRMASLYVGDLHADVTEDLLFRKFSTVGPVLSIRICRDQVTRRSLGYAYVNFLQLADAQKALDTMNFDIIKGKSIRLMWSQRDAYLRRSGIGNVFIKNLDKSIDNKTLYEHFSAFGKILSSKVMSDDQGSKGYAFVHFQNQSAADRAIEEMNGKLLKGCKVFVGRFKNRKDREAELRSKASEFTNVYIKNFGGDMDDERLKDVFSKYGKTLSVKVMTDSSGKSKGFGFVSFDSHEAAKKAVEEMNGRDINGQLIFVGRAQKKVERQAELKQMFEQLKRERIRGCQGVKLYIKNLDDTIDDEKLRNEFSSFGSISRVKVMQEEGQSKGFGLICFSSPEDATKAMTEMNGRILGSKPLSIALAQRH
UniProt P0C860: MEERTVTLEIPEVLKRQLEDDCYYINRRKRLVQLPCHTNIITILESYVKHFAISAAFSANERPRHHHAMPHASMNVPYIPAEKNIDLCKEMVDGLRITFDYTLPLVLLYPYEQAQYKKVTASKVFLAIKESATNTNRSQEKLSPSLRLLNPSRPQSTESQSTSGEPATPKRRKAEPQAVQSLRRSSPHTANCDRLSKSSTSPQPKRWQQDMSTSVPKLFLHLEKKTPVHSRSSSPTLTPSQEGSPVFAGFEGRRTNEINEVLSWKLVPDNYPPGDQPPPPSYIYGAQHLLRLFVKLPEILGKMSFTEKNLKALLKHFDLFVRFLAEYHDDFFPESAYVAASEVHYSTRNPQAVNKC
UniProt P04083: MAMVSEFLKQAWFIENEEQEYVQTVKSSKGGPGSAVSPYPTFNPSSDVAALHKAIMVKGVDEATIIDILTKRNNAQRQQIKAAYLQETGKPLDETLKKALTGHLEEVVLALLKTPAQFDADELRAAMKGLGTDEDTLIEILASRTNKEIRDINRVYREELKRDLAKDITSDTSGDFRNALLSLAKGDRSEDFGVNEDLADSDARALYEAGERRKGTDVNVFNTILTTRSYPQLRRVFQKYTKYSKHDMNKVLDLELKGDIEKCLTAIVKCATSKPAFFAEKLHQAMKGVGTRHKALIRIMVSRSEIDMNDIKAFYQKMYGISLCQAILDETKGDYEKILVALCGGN
UniProt P0DJG4: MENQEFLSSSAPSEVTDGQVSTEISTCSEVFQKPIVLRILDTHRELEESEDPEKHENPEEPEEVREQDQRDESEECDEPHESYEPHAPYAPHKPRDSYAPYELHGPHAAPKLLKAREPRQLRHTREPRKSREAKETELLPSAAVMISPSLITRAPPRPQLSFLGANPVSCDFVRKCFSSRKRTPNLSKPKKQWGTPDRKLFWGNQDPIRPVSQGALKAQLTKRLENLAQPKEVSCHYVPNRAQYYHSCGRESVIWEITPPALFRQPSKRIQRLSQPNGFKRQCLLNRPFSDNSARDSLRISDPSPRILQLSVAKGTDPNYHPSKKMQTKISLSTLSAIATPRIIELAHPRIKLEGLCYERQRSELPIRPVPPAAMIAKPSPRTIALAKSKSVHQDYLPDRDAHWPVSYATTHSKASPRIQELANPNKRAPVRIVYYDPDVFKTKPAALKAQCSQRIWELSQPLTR
UniProt P07437, whole entry: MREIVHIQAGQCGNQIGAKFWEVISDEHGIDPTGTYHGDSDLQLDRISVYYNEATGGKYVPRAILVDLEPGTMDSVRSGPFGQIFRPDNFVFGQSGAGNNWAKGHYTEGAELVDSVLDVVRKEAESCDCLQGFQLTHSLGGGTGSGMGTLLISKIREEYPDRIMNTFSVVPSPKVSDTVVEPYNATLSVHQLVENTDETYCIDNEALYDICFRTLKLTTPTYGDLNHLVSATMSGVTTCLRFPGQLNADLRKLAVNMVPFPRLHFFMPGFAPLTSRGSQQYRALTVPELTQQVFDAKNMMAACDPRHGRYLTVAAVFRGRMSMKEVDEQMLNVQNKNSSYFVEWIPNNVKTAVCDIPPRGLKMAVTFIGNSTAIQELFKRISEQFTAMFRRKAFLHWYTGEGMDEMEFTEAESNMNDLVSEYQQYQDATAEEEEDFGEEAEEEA
UniProt P10109: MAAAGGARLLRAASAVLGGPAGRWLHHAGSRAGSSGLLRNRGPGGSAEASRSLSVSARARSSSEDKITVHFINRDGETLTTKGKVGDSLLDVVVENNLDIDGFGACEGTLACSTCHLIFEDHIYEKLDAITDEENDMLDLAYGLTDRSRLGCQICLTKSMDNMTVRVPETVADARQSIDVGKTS
UniProt P10589: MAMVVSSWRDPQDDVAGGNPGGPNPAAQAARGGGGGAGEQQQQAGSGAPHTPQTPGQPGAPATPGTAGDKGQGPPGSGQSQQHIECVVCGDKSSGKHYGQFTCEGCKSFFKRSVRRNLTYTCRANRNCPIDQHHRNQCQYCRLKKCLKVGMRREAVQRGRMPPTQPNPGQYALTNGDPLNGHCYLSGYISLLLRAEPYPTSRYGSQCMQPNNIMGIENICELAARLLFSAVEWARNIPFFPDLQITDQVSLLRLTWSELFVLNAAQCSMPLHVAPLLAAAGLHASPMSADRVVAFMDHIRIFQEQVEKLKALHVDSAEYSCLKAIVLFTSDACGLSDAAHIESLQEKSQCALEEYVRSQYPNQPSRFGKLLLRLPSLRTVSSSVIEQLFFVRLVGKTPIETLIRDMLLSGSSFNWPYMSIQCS
UniProt P09327: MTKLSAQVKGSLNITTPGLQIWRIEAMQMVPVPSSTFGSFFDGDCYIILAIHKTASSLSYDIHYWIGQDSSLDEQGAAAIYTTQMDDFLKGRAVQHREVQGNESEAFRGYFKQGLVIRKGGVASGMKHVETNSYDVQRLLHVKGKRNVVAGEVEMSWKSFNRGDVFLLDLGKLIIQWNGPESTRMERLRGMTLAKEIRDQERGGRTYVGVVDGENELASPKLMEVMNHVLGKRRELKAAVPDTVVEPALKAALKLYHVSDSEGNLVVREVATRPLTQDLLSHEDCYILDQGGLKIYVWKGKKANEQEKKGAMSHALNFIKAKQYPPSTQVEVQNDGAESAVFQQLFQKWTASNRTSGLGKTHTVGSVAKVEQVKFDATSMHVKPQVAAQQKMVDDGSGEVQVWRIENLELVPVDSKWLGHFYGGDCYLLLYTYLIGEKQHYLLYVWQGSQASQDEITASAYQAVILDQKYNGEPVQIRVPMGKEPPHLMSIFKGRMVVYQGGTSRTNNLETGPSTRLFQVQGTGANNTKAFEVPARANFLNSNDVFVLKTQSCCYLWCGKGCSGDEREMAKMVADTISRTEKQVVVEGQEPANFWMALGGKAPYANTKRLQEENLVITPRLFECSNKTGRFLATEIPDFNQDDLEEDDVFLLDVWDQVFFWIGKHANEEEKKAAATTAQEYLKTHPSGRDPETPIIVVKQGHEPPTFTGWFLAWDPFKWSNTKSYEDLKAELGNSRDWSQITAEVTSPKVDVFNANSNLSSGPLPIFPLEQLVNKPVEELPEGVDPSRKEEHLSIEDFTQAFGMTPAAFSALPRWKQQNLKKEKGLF

Compound in the assay: Cc1nc(Nc2ncc(C(=O)Nc3c(C)cccc3Cl)s2)cc(N2CCN(CCO)CC2)n1 [dasatinib]
The assay can be described thus: log2 fold change of tryptic peptide abundance, ligand vs vehicle (limited proteolysis) (log2 ratio); higher = more trypsin-susceptible (destabilized). The following applies: ligand concentration: 5 uM; sample: K562 cleared lysate.
On to “MYH3 (peptide sequence: REAEFLK, peptide start residue: 1168) (UniProt P11055)”, for which the log2 fold change was -0.0561. Turning to “SKI (peptide sequence: YSAQIEDLQVK, peptide start residue: 663) (UniProt P12755)”, the log2 fold change was 0.414.

In the case of “TK1 (peptide sequence: YSSSFCTHDR, peptide start residue: 61) (UniProt P04183)”, the log2 fold change worked out at 0.117. In the case of “P4HB (peptide sequence: ALAPEYAK, peptide start residue: 58) (UniProt P07237)”, the log2 fold change is 0.094.

With “MYC (peptide sequence: PLNVSFTNR, peptide start residue: 2) (UniProt P01106)”, the log2 fold change was -0.248. The same measure for “UniProt P0CB38 (peptide sequence: NLDDTIDDEK, peptide start residue: 300)”: 0.0713. For the target “UniProt P0C860 (peptide sequence: LFLHLEK, peptide start residue: 384)”, the log2 fold change is 0.0143. As to “ANXA1 (peptide sequence: GVDEATIIDILTKRNNAQR, peptide start residue: 59) (UniProt P04083)”, the log2 fold change is 0.506. “UniProt P0DJG4 (peptide sequence: DSYAPYELHGPHAAPK, peptide start residue: 96)”: the log2 fold change is -0.427.

As to “UniProt P07437 (peptide sequence: FPGQLNADLRK, peptide start residue: 242)”, the log2 fold change was -0.29. For the target “FDX1 (peptide sequence: QSIDVGKTS, peptide start residue: 176) (UniProt P10109)”, the log2 fold change is -0.248. As to “NR3C1 (peptide sequence: TEKEDFIELCTPGVIK, peptide start residue: 278) (UniProt P04150)”, the log2 fold change is 0.29.

Take “UniProt P10589 (peptide sequence: SQCALEEYVR, peptide start residue: 341)”: the log2 fold change is -0.211. On to “VIL1 (peptide sequence: AAVPDTVVEPALK, peptide start residue: 238) (UniProt P09327)”, for which the log2 fold change is -0.526.

Values taken from the supplement of paper PMC12819154, “High-throughput peptide-centric local stability assay extends protein–ligand identification to membrane proteins, tissues and bacteria” (Nature Structural & Molecular Biology, 2025).
